According to PMC7695691:
No constants are given. Whether binding was seen depends on the method and setting. Binding seen in cells or lysates may run through a third protein. Some results given as binding are weak or reduced against the parent protein; the word gives no strength. For part of these data: Where a sequence is shown, tags or fusion partners need not be part of it.

By UniProt entry, the sequences of proteins in these tests, tags left out. Where a name states a change or a piece, a line headed by the entry shows the natural chain unless it says otherwise.
UniProt Q8TAF3: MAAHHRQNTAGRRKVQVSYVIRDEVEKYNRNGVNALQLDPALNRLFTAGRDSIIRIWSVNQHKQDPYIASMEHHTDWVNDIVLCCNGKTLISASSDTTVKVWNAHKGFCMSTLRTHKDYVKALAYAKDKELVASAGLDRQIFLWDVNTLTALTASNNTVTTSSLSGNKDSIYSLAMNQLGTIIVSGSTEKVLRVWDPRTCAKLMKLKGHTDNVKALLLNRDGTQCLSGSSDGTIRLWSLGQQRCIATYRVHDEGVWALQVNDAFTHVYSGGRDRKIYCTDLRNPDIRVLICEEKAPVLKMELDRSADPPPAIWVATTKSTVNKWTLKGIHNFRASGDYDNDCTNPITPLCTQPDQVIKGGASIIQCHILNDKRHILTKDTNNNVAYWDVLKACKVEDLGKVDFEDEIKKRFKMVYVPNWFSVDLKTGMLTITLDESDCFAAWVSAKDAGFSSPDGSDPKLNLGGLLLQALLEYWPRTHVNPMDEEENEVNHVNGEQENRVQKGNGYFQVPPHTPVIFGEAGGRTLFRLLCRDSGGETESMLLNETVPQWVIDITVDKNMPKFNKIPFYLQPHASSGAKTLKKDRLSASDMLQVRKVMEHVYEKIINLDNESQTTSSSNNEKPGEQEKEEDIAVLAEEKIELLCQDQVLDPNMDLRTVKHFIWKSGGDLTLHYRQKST
UniProt Q8BH57: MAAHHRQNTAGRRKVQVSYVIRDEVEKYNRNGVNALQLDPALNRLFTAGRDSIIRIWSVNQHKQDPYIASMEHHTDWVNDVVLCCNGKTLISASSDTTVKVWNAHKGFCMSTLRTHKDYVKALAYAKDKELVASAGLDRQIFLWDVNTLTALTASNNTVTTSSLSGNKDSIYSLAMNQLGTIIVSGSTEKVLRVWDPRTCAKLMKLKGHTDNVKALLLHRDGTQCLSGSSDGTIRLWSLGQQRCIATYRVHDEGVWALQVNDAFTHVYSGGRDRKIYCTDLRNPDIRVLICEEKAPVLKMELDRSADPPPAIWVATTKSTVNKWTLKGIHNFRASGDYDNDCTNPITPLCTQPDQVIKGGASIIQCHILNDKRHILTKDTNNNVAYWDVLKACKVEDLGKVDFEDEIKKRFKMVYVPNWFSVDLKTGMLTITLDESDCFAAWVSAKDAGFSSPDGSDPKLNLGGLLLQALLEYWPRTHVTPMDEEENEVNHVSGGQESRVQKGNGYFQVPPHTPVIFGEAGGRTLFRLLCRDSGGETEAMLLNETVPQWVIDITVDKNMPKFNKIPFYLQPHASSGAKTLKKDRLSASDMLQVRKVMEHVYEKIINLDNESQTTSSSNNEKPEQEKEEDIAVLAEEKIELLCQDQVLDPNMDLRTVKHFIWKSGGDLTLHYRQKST
UniProt Q04206: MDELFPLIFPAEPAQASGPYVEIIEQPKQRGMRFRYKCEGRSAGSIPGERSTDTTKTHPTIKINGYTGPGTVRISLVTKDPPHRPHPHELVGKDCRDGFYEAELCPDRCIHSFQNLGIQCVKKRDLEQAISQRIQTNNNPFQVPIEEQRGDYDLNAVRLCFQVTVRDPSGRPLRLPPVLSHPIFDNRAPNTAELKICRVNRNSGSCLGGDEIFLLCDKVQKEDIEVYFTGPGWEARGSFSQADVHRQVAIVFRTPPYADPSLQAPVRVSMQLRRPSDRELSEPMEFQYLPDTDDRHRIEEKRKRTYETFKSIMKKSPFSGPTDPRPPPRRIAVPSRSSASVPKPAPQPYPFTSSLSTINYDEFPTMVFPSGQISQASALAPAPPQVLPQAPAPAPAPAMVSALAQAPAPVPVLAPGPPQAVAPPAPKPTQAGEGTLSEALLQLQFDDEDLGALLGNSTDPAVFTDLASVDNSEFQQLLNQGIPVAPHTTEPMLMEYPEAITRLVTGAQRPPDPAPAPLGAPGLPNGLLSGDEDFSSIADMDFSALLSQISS
UniProt Q04207: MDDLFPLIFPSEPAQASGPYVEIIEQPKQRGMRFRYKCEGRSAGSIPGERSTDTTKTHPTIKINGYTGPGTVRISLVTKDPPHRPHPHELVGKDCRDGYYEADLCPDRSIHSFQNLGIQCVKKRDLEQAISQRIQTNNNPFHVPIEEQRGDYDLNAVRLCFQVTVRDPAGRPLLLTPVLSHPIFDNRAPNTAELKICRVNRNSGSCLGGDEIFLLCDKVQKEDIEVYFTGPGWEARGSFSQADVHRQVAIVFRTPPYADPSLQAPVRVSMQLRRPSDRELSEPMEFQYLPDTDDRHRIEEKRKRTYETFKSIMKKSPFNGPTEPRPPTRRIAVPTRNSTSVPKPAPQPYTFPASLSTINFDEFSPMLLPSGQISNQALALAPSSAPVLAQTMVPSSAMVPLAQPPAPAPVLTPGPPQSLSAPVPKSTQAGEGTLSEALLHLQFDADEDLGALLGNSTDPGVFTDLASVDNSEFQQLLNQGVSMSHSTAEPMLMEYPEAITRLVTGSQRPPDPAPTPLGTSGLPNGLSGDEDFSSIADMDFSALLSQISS
UniProt Q96P20: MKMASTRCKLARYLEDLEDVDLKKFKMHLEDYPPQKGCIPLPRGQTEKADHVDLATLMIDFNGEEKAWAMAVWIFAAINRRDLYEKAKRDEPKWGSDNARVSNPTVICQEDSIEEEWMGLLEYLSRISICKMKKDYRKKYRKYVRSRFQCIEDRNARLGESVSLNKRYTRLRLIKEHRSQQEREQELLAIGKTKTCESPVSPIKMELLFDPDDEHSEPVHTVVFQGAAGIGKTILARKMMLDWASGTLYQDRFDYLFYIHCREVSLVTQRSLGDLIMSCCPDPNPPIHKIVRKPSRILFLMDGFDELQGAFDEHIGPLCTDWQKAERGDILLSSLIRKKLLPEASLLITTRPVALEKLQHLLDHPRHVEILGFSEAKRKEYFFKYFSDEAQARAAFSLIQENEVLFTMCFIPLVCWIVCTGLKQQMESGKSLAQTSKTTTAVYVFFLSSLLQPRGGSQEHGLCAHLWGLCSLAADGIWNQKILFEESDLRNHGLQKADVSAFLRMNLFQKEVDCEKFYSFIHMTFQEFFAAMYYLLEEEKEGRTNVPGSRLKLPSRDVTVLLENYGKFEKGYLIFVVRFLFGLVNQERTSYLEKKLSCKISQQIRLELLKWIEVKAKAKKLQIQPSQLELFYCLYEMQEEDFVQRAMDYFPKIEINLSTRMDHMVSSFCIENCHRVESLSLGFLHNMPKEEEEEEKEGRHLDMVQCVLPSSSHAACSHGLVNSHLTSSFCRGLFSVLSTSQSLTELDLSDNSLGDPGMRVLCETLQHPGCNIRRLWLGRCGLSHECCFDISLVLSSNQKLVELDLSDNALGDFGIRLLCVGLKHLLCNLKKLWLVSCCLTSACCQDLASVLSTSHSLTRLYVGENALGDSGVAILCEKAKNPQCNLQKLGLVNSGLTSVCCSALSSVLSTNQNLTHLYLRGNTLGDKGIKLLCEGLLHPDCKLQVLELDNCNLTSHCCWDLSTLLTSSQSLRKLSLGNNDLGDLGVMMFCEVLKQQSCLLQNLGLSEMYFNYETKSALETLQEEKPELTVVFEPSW
UniProt Q8R4B8: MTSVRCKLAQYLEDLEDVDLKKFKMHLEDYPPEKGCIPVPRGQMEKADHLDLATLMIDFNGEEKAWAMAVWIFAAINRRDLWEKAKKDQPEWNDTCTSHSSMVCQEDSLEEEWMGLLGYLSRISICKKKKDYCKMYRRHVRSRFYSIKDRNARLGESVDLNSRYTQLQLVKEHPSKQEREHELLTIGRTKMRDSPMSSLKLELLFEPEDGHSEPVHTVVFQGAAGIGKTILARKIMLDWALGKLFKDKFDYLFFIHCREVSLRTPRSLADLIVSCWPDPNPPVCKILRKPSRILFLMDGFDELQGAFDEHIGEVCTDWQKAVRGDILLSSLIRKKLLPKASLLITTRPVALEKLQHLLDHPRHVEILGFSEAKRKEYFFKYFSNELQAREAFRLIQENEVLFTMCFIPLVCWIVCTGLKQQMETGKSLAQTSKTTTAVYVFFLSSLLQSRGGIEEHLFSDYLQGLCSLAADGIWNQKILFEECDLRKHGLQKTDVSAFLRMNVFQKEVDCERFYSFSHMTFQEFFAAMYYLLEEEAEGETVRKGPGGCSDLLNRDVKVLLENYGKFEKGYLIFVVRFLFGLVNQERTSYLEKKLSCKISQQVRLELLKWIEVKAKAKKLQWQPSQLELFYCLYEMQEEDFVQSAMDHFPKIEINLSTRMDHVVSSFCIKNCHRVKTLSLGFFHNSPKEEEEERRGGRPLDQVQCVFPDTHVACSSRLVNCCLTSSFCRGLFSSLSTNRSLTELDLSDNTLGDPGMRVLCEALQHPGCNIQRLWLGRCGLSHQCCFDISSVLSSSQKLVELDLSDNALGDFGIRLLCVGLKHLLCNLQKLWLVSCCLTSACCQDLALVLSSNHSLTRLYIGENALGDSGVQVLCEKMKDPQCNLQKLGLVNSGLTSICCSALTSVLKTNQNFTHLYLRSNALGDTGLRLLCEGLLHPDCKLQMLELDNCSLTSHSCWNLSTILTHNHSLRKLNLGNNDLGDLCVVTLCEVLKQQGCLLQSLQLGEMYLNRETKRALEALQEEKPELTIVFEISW
UniProt O75317: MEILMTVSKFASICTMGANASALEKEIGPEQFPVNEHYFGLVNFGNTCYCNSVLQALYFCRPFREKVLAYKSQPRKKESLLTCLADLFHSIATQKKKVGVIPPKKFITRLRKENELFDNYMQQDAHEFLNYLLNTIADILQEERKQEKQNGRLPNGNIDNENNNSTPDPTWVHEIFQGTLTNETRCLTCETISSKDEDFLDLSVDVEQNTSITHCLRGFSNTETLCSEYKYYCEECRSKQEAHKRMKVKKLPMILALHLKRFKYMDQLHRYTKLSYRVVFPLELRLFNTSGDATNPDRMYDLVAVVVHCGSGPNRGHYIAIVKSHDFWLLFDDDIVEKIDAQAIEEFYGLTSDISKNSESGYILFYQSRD
UniProt P62069: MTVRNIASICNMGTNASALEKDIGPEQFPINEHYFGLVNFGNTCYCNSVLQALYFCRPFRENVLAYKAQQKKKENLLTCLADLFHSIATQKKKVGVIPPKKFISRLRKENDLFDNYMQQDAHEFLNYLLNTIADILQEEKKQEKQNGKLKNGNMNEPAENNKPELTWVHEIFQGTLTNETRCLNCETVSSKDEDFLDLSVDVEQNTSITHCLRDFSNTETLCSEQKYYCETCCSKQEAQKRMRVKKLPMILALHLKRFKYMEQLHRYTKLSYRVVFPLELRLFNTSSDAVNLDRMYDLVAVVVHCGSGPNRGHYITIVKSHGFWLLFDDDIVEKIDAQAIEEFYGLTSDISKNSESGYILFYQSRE
UniProt P62068: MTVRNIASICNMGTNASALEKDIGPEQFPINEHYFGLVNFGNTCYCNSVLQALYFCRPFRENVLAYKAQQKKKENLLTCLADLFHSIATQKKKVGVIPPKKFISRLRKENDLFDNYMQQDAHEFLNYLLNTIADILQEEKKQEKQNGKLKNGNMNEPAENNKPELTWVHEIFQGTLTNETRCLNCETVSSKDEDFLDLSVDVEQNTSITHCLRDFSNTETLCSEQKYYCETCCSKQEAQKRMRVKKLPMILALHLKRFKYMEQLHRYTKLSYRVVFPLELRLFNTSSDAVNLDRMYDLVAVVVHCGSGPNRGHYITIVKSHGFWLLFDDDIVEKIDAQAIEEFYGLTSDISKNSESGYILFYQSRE
UniProt Q9D9M2: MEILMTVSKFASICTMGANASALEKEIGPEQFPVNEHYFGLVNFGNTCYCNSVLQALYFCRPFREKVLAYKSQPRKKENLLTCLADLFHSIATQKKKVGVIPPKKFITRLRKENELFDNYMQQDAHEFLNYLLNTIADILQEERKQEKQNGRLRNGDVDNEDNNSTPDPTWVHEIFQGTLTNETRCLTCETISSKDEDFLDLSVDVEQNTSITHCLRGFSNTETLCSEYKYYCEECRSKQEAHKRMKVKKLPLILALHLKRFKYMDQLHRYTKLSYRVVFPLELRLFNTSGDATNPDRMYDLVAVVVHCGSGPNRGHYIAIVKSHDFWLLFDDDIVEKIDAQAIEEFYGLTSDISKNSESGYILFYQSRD

What was measured:
[1] = target: T1, Flag-USP1 (human (cDNA from THP-1 cells)) (UniProt O94782); test: co-IP; lysates of HEK293T cells transiently transfected with tagged proteins; IP with anti-Myc (p65 as bait) or anti-Flag (USP1 or UAF1 as bait), western blot with anti-Flag or anti-Myc; IP buffer 1.0% Nonidet P 40, 50 mM Tris-HCl pH 7.4, 50 mM EDTA, 150 mM NaCl
T1 sequence: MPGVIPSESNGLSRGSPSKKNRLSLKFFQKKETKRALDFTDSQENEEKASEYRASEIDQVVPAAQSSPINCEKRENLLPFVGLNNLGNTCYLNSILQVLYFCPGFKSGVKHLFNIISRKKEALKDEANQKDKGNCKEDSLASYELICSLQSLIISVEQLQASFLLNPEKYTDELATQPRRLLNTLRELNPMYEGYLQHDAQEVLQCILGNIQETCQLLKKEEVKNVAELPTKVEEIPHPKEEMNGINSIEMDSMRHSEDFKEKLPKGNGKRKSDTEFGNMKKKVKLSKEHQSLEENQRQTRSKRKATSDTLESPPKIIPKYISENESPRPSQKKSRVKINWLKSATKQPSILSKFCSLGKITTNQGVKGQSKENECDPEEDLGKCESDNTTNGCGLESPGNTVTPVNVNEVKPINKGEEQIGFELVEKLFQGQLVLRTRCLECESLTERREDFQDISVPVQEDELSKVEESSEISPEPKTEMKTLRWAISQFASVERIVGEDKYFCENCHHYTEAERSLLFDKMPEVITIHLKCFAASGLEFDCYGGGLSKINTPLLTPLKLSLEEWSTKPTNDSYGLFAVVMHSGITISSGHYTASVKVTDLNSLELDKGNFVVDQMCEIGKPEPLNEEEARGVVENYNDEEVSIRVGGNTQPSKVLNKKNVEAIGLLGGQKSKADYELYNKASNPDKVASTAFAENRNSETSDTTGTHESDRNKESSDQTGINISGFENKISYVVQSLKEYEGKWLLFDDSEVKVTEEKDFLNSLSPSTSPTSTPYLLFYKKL

[2] = target: Flag-UAF1 (human (cDNA from THP-1 cells)) (UniProt Q8TAF3); test: as above
[3] = target: T2, Ubiquitin specific peptidase 1 (endogenous, mouse peritoneal macrophages) (mouse (endogenous in peritoneal macrophages)) (UniProt Q8BJQ2); test: co-IP; endogenous proteins in lysates of mouse peritoneal macrophages, unstimulated or stimulated with LPS for the indicated times; IP with anti-p65, anti-USP1 or anti-UAF1, western blot; IP buffer 1.0% Nonidet P 40, 50 mM Tris-HCl pH 7.4, 50 mM EDTA, 150 mM NaCl
T2 sequence: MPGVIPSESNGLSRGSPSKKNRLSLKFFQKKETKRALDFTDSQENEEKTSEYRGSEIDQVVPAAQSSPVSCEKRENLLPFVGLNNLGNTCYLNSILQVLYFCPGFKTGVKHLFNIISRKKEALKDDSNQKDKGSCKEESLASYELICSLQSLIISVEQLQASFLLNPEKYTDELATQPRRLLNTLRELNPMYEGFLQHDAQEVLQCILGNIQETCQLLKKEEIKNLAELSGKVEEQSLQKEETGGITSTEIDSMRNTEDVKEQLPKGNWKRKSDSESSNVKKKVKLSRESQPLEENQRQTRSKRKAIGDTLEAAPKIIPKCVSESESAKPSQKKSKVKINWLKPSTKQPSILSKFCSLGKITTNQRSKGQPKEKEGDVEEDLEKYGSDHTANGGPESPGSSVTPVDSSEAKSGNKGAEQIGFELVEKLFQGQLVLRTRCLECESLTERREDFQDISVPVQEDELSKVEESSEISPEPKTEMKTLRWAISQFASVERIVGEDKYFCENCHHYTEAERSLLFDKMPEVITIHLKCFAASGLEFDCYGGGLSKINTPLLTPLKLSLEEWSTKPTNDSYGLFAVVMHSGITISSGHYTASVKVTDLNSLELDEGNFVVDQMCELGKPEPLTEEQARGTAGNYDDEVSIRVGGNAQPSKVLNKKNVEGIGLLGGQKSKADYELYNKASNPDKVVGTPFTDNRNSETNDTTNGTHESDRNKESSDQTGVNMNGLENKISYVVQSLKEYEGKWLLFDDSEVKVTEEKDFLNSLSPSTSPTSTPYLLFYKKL

[4] = target: Ubiquitin specific peptidase 1 (USP1)-associated factor 1 (endogenous, mouse peritoneal macrophages) (mouse (endogenous in peritoneal macrophages)) (UniProt Q8BH57); test: as above
Myc-p65 = Myc-p65 (UniProt Q04206); test: co-IP; lysates of HEK293T cells transiently transfected with tagged proteins; IP with anti-Myc (p65 as bait) or anti-Flag (USP1 or UAF1 as bait), western blot with anti-Flag or anti-Myc; IP buffer 1.0% Nonidet P 40, 50 mM Tris-HCl pH 7.4, 50 mM EDTA, 150 mM NaCl
[5] = target: NF-κB subunit p65 (endogenous, mouse peritoneal macrophages) (mouse (endogenous in peritoneal macrophages)) (UniProt Q04207); test: co-IP; endogenous proteins in lysates of mouse peritoneal macrophages, unstimulated or stimulated with LPS for the indicated times; IP with anti-p65, anti-USP1 or anti-UAF1, western blot; IP buffer 1.0% Nonidet P 40, 50 mM Tris-HCl pH 7.4, 50 mM EDTA, 150 mM NaCl
[6] = target: HA-tagged UAF1 (in vitro transcribed and translated) (UniProt Q8TAF3); test: co-IP; in vitro binding assay: both proteins obtained by in vitro transcription and translation, mixed together, IP with USP1 antibody or HA antibody, immunoblot with NLRP3 antibody
[7] = target: T3, USP1 (from PCMV6-USP1, in vitro transcribed and translated) (UniProt O94782); test: as above
T3 sequence: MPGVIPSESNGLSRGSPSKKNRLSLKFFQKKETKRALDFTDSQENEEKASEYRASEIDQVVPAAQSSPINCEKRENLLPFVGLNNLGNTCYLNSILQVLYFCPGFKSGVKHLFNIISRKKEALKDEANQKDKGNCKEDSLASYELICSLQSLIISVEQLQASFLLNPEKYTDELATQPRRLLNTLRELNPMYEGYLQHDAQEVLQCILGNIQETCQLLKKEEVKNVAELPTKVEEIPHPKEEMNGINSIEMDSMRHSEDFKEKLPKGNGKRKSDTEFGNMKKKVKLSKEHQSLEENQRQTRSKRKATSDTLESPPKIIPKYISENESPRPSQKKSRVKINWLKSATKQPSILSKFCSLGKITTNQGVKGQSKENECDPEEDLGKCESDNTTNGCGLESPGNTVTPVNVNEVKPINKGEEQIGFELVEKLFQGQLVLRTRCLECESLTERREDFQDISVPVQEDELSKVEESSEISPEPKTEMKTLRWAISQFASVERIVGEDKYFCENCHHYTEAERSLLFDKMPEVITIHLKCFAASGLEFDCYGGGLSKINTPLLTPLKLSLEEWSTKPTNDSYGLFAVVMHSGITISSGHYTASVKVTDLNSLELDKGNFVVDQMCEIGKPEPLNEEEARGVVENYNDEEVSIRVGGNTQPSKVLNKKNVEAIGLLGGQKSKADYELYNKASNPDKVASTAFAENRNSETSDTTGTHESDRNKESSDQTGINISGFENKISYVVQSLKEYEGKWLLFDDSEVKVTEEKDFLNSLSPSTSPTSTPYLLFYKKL

Myc-NLRP3 NACHT domain mutant (NACHT) (from UniProt Q96P20 220-536) (domain or fragment)
binding [1]: binds
binding [2]: binds

NOD-like receptor protein 3 (endogenous, mouse peritoneal macrophages) (from UniProt Q8R4B8 1-1033)
binding [3]: binds
binding [4]: binds

Flag-USP12 (from UniProt O75317 1-370) (enzyme)
binding (Myc-p65): binds

Ubiquitin specific peptidase 1 (USP1)-associated factor 1 (endogenous, mouse peritoneal macrophages) (from UniProt Q8BH57-1 1-676)
binding [5]: binds

USP46 (endogenous, mouse peritoneal macrophages) (from UniProt P62069 1-366) (enzyme)
binding [5]: binds

Myc-NLRP3 wild-type (from UniProt Q96P20 1-1036)
binding [1]: binds
binding [2]: binds

Flag-USP46 (from UniProt P62068 1-366) (enzyme)
binding (Myc-p65): binds

USP12 (endogenous, mouse peritoneal macrophages) (from UniProt Q9D9M2 1-370) (enzyme)
binding [5]: binds

Myc-tagged NLRP3 (in vitro transcribed and translated) (from UniProt Q96P20 1-1036)
binding [6]: binds
binding [7]: binds

Flag-UAF1 (from UniProt Q8TAF3 1-677)
binding (Myc-p65): binds

B1: Ubiquitin specific peptidase 1 (endogenous, mouse peritoneal macrophages) (enzyme, UniProt Q8BJQ2 1-784)
chain: MPGVIPSESNGLSRGSPSKKNRLSLKFFQKKETKRALDFTDSQENEEKTSEYRGSEIDQVVPAAQSSPVSCEKRENLLPFVGLNNLGNTCYLNSILQVLYFCPGFKTGVKHLFNIISRKKEALKDDSNQKDKGSCKEESLASYELICSLQSLIISVEQLQASFLLNPEKYTDELATQPRRLLNTLRELNPMYEGFLQHDAQEVLQCILGNIQETCQLLKKEEIKNLAELSGKVEEQSLQKEETGGITSTEIDSMRNTEDVKEQLPKGNWKRKSDSESSNVKKKVKLSRESQPLEENQRQTRSKRKAIGDTLEAAPKIIPKCVSESESAKPSQKKSKVKINWLKPSTKQPSILSKFCSLGKITTNQRSKGQPKEKEGDVEEDLEKYGSDHTANGGPESPGSSVTPVDSSEAKSGNKGAEQIGFELVEKLFQGQLVLRTRCLECESLTERREDFQDISVPVQEDELSKVEESSEISPEPKTEMKTLRWAISQFASVERIVGEDKYFCENCHHYTEAERSLLFDKMPEVITIHLKCFAASGLEFDCYGGGLSKINTPLLTPLKLSLEEWSTKPTNDSYGLFAVVMHSGITISSGHYTASVKVTDLNSLELDEGNFVVDQMCELGKPEPLTEEQARGTAGNYDDEVSIRVGGNAQPSKVLNKKNVEGIGLLGGQKSKADYELYNKASNPDKVVGTPFTDNRNSETNDTTNGTHESDRNKESSDQTGVNMNGLENKISYVVQSLKEYEGKWLLFDDSEVKVTEEKDFLNSLSPSTSPTSTPYLLFYKKL
binding [5]: no binding
